The source of these data is doi:10.1101/341834.

The chains behind the UniProt entries cited, without tags or fusion partners.
UniProt P93002: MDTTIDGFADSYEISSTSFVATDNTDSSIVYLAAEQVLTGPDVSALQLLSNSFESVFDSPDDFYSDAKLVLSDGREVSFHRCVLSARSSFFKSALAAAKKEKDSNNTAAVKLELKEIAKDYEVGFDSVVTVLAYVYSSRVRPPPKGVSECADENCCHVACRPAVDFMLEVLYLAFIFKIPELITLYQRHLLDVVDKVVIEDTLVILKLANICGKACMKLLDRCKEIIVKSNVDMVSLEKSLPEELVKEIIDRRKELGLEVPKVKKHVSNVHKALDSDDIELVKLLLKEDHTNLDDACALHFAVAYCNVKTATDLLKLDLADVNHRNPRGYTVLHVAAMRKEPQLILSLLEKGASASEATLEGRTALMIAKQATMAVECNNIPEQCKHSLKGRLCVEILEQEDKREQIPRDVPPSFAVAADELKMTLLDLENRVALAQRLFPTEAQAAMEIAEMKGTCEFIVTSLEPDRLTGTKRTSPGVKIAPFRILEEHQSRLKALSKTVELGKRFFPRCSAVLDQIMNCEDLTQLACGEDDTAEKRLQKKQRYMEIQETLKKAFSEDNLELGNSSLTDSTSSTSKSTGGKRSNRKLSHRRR

B1: GAD–NtTGA2.1 (protein, UniProt O24160 1-456)
chain: MASKIGTAGNRSGTTGMPSFISQIPVSNPMGTEANNTNTSRMSDFGVLEQYLGFRIGDGANVNRSPLFNSTSATNPAVGFEVSGTINRTLAPSNTSLPTATPRSQTMLLQSNLVSASGTHHENWGESNMADSGSRTDTSTDMDGDDKNQLIEAGQSSDKSKEKVLDQKTLRRLAQNREAARKSRLRKKAYVQQLENSRLKLSQLEQDLQRARQQGKYISNIADQSNGVGANGPLAFDAEYSRWLEEHNKHINELRTAVNAHASDPELRSIVNNVTAHFDEVFRVKGNAAKADVFHVLSGMWKTPAERCFMWIGGFRPSELLKLLVNQLEPLTEQQLAGIYNLQQSSHQAEDALSQGMEALQQSLAETLANGSPAPEGSSGDVANYMGQMAMAMGKLGTLEGFLRQADNLRQQTLQQMHRVLTTRQSARALLAINEYFSRLRALSSLWLARPREQLV
B2: GAD–NtTGA10 (protein, UniProt Q52MZ2 1-506)
chain: MGFERAFVESSPEQENKLFVGVSYMDSSNKNQDPSESNNQISFGGQHQHHQQQFFYNHHQQQQLQNNNQVSFGMMQQSSSAIPGSLISKDSAGAYDLGELDQALFQYLDGQEPSSIQEQRQNSGMRPPTLNIFPSQPMHVEPSTTNKMNTGLVSPAISGSKRSSQPSMELSNNLKNNDAPSASGPEPPKAAKREGNRKGPTSSSEQDAPKTPDPKTLRRLAQNREAARKSRLRKKAYVQQLESSRIRLTQLEQELQRARAQGYYFGGNSLLGGEQNLPVNLANMSSDAAVFDMEYARWLEEHHRLMCELRNAVQEHFPENELRIYVDNCVTHYDEIMNLKSMLTKSDVFHLVSGMWKTPAERCFMWMGGFRPSELLKIILSQIEPLTEQQLMGICGLQQSTQEAEDALSQGLEALNHSLSDTIASDALSCPQNMANYMGQMALAMNKLSTLEGFVRQADNLRHQTIHRLHQLLTTRQAARCFLAIAEYFHRLRALSSLWHARPRQE
B3: GAD–NtTGA1a (protein, UniProt P14232 1-359)
chain: MGICDPIHQLGMWDDFNSSFPSTSATMILEVDKCLEDQIPIMEKRLDNETEDTSHGTVGTSNRYEPETSKPVEKVLRRLAQNREAARKSRLRKKAYVQQLENSKLKLIQLEQELERARKQGMCVGGGVDASQLSYSGTASSGTAVFDMEYGHWVEEQTRQTNDLRIALHSQIGEAELRIIVDGYLNHYFDLFRMKATAAKADVLYIMSGMWKTSAERFFMWIGGFRPSELLKVLTPHLELLTEQQLREVCNLTQSCQQAEDALSQGMVKLHQILAEAVAAGRLGEGNYTLPQMGPAIEKLEDLVRFVNQADHLRQETLQQMSRILNTCQAAQGLLALGEYFERLRVLSSQWATRLREPT

These are yes or no findings as the source states them, for the method shown. Some results given as binding are weak or reduced against the parent protein; the word gives no strength.

The target of this assay is GBD–AtNPR1 (Arabidopsis) (UniProt P93002). Put plainly: two-hybrid.
For the molecule B1, the binding entry is reported as “binds”.

As to B2, the binding entry is listed as “no binding”.

As to B3, the binding result was “no binding”.
